Patent US20190211098A1
These are yes or no findings as the source states them, for the method shown. Some entries that bind do so weakly or less than the wild type.

Legend:
[1] = target: Mouse PILRA extracellular domain fused to human CD3 zeta chain transmembrane and intracellular domains, on 293-PILRA stable cells (mouse; human) (UniProt P20963); experiment: cell-based competitive ELISA: 293-PILRA stable cells, antibody titrated together with a fixed amount of mouse CD99-Fc, bound ligand-Fc detected with anti-human IgG-Fc-HRP
[2] = target: Mouse PILRA extracellular domain fused to human CD3 zeta chain transmembrane and intracellular domains, on 293-PILRA stable cells (mouse; human) (UniProt P20963); experiment: cell-based competitive ELISA: 293-PILRA stable cells, antibody titrated together with a fixed amount of mouse C12orf53-Fc, bound ligand-Fc detected with anti-human IgG-Fc-HRP

Row | binding [1] | binding [2] | Binder
1 | binds |  | Anti-mouse PILRA antibody 12H1.8 (antibody, mouse IgG2a, kappa, V domains shown) VH: QVQLQQSGAELVGPGTSVKISCQASGYTFTNYWIGWAKQRPGHGLEWIGDIYPGGGYTNYNKKFKGKATLTADKSSSTAYMQFSSLTSEDSAIYYCSRSRGHGSNFYWYFDVWGTGTTVTVSS VL: DIVMTQSPKFMSTSVGDRVNITCRASQDVNTAVAWFQQKPGRSPKLLIYSASYRYTGPDHFTGSGSGTDFTFTISSVQAEDLAVYYCQQHYTTPLTFGAGTKLEIKR
2 | binds | binds | Anti-mouse PILRA antibody 12C6.9 (antibody, mouse IgG2a, kappa, V domains shown) VH: QIQLVQSGPELKKPGETVKISCKASGYTFTTYGMSWMKQAPGKGLKWMGWINTYSGVPTYADDFKGRFAFSLETSASTAYLQISNLKDEDTARYFCARRDYGSSQWYFDVWSTGTTVTVSS VL: DIVMTQSPKFMSISVGDRVSVTCKASQNVGTKVAWYQQKPGQSPKELIYSASYRFSGVPDRFTGSGSGTDFTLTISSVQSEDLAEYFCQQYNTYPLTFGAGTKLEIKR
